Binding data for 3 molecules are collected here from paper PMC8281315.

Amino acid sequences for entries named in this document (tags omitted). Residues count along the entry.
UniProt P30530, residues 26-894: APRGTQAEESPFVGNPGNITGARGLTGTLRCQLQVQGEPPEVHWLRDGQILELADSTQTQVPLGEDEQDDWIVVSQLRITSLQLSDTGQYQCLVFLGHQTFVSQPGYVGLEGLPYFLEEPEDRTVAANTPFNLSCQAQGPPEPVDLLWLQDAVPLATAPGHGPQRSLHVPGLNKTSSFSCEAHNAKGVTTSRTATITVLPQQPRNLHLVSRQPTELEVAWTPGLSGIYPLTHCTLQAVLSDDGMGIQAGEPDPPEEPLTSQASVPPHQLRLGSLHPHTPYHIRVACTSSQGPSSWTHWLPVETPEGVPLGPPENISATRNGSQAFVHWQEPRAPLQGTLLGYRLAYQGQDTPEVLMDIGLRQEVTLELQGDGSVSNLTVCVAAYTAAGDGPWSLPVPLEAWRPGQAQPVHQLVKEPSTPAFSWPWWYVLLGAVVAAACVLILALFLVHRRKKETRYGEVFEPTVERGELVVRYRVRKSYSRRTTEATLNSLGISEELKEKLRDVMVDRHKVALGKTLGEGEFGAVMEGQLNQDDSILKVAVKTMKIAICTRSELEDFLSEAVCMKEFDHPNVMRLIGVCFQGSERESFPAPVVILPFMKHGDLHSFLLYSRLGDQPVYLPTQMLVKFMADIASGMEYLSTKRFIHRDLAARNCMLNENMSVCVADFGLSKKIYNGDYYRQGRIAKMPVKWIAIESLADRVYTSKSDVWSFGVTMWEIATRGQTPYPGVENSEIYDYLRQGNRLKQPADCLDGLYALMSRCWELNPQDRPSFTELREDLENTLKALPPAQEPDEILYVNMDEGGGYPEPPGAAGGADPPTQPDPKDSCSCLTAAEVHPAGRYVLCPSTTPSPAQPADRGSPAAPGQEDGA

For the assay, the target named is T1, Netrin-G1 (NTNG1) (human (endogenous in SKOV3)) (UniProt Q9Y2I2).
T1 sequence: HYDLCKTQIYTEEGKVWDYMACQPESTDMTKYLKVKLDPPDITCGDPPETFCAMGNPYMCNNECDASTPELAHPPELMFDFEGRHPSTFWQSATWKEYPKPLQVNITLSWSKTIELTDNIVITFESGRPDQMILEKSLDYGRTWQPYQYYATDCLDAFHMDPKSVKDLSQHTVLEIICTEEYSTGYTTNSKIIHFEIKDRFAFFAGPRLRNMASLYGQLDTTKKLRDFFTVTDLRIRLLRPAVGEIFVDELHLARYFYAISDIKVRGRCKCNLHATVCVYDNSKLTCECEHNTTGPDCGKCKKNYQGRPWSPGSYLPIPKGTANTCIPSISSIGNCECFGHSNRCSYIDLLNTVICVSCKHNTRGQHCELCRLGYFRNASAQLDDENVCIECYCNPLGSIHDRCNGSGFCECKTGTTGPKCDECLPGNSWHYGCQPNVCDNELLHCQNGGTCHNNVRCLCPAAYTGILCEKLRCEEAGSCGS
The experiment in a line: co-IP; anti-NTNG1 antibody (Santa Cruz) on protein A/G beads; lysates of NTNG1- or NC-transfected SKOV3 cells in RIPA buffer with PMSF; eluted proteins blotted for NTNG1, GAS6, AXL and p-AXL.

These are yes or no findings as the source states them, for the method shown. Binding seen in cells or lysates may run through a third protein. Some results given as binding are weak or reduced against the parent protein; the word gives no strength.

Regarding “phosphorylated AXL (p-AXL) (from UniProt P30530 26-894) (receptor)”, the binding entry is “binds”. In the case of “receptor tyrosine kinase AXL (from UniProt P30530 26-894)” it was “binds”.

B1: growth arrest-specific 6 (GAS6) (ligand, UniProt Q14393 31-678)
chain: ALLPAREATQFLRPRQRRAFQVFEEAKQGHLERECVEELCSREEAREVFENDPETDYFYPRYLDCINKYGSPYTKNSGFATCVQNLPDQCTPNPCDRKGTQACQDLMGNFFCLCKAGWGGRLCDKDVNECSQENGGCLQICHNKPGSFHCSCHSGFELSSDGRTCQDIDECADSEACGEARCKNLPGSYSCLCDEGFAYSSQEKACRDVDECLQGRCEQVCVNSPGSYTCHCDGRGGLKLSQDMDTCEDILPCVPFSVAKSVKSLYLGRMFSGTPVIRLRFKRLQPTRLVAEFDFRTFDPEGILLFAGGHQDSTWIVLALRAGRLELQLRYNGVGRVTSSGPVINHGMWQTISVEELARNLVIKVNRDAVMKIAVAGDLFQPERGLYHLNLTVGGIPFHEKDLVQPINPRLDGCMRSWNWLNGEDTTIQETVKVNTRMQCFSVTERGSFYPGSGFAFYSLDYMRTPLDVGTESTWEVEVVAHIRPAADTGVLFALWAPDLRAVPLSVALVDYHSTKKLKKQLVVLAVEHTALALMEIKVCDGQEHVVTVSLRDGEATLEVDGTRGQSEVSAAQLQERLAVLERHLRSPVLTFAGGLPDVPVTSAPVTAFYRGCMTLEVNRRLLDLDEAAYKHSDITAHSCPPVEPAAA
Take B1: the binding result is given as “binds”.
